Measurements reported in PubChem BioAssay AID2417 (National Center for Advancing Translational Sciences (NCATS), 2010).
Screen size: about 140,000 compounds; about 4,300 (3.1%) were called active. Inconclusive results, whose numbers are uncertain, are shown with a selection of clear calls.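 How the source made its calls: active means readout at or below -70, meaning at least 70% loss of cells showing the perinucleolar compartment, a nuclear body marking cancer cells; inconclusive means readout between -30 and a set limit; inactive means the rest.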

assay: High Content Assay for Compounds that inhibit the Assembly of the Perinucleolar Compartment; conditions: PC3M PTB-GFP, PNC prevalence imaging, 16 h; at 10 µM; stronger effect = lower value;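 further: plate controls were DMSO wells for no effect and camptothecin positive control wells for full effect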
Method in brief: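 Compounds are pinned in duplicate onto adhered PC3M cells stably expressing GFP-tagged PTB and incubated 16 h at 37 C. Cells are then fixed, nuclei stained with Hoechst, and PNC-positive cells counted.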

Row | Compound | activity change (PNC), negative = inhibition
1 | Cc1ccc(S(=O)(=O)N(Cc2ccc(Cl)cc2)c2ccccc2C(=O)NCc2cccnc2)cc1 | inconclusive: -37.4%
2 | Nc1ccc(S(=O)(=O)c2ccc(N)cc2)cc1 | inactive: 4.71%
3 | Cc1ccccc1-c1nnc(Cc2ccccc2)o1 | inconclusive: -51.2%
4 | Nc1c2c(nc3ccc(Br)cc13)N(c1ccccc1)CC2 | inactive: 34.1%
5 | CC1CCCCN1C(=O)/C(=C\c1ccccc1)c1ccccc1 (centres undefined) | inactive: 28.3%
6 | CCn1c(SCc2nc3ccccc3c(=O)[nH]2)nnc1-c1ccncc1 | inconclusive: -47.4%
7 | N#C/C(=C\c1ccccc1)C(=O)N(c1ccccn1)C1CCCCC1 | inconclusive: -53%
8 | Cc1ccc2c(Cl)cc(Cl)c(OCC(=O)Nc3cc(S(=O)(=O)N(C)C)ccc3C)c2n1 | inconclusive: -33.2%
9 | COC(=O)c1cc2c(=O)n3cccc(C)c3nc2n(Cc2cccnc2)c1=N | inconclusive: -55.9%
10 | Cc1c(CN(C)C(=O)/C=C/c2ccc([N+](=O)[O-])cc2)cnn1C | inconclusive: -42%
11 | CC1CN(C(=O)C2CCCN2S(=O)(=O)c2ccc(Cl)cc2)CC(C)O1 (centres undefined) | inconclusive: -42.5%
12 | O=C(CCS(=O)(=O)c1ccc(Br)cc1)N1CCN(c2ccccc2Cl)CC1 | inconclusive: -58.2%
13 | O=C1NC2c3ccccc3C(=O)N2c2c1cnn2-c1ccccc1 (centres undefined) | active: -100%
14 | CC(C)CCC1CC(CSC(=N)N)OC1=O (centres undefined) | inactive: -7.19%
15 | C=CCNC(=O)c1cc(Cl)ccc1Cl | inactive: -9.07%
16 | CCC(C)C(NC(=O)c1ccccc1NC(=O)c1ccccc1)C(=O)N1CCOCC1 (centres undefined) | inactive: 30.7%
17 | Cc1ccc(OCC(=O)NNc2c3ccccc3nc3ccccc23)cc1 | inconclusive: -64.2%
18 | N#Cc1ccccc1NC(=O)CC1c2ccccc2Oc2ccccc21 | inconclusive: -37.1%
19 | Cc1ccc(-n2ncc3c(N4CCN(c5ccc(F)cc5)CC4)ncnc32)c(C)c1 | inconclusive: -63.9%
20 | CN(C)/C=c1\sc2c(C#N)cc(C(=O)c3ccc(Br)cc3)n2c1=O | inactive: 63.6%
21 | COC(=O)C1=C(C)N(C)C(=S)NC1c1ccc(Cl)cc1 (centres undefined) | inconclusive: -33%
22 | CCCCn1c(=O)c2c(O)cc(=O)oc2c2ccccc21 | inconclusive: -30.4%
23 | Cc1onc(-c2ccccc2Cl)c1-c1nc(-c2ccccn2)no1 | inconclusive: -40.4%

Row | Compound | activity change (PNC), negative = inhibition
24 | O=C(CC1SC(=NCCc2ccccc2)N(/N=C/c2cccs2)C1=O)Nc1ccc(Cl)cc1 (centres undefined) | inconclusive: -35.8%
25 | CC(C)(Oc1ccc(Cl)cc1)C(=O)NC1CCSC1=O (centres undefined) | inactive: -9.56%
26 | CC(=O)CCc1c(C)nc2ccc(C(=O)O)cc2c1Cl | inconclusive: -30.2%
27 | O=C(NCc1ccco1)c1cc2ccc(O)cc2oc1=O | inactive: 29.6%
28 | CCOc1ccc(S(=O)(=O)Nc2ccc(S(=O)(=O)N3CCCCC3)cc2)cc1 | inactive: 1.34%
29 | Cc1ccc(C2OC(=O)c3ccccc32)cc1 (centres undefined) | inactive: 19.6%
30 | Cc1cccc(C)c1Nc1nnc(SCc2nc3ccccc3c(=O)[nH]2)s1 | active: -118%
31 | COc1ccc(-c2cc(=O)oc3cc(OCC(=O)c4cccc([N+](=O)[O-])c4)ccc23)cc1 | inconclusive: -40.6%
32 | O=C(COC(=O)CNC(=O)c1ccccc1F)NCCC1=CCCCC1 | inconclusive: -42.5%
33 | Cc1ccc2c(c1)c1c(n2C)-c2[nH]ncc2CC1 | inconclusive: -31.2%
34 | CC1CCCN(c2ccc(C(=O)NCc3ccc4c(c3)OCO4)cc2[N+](=O)[O-])C1 (centres undefined) | inconclusive: -62%
35 | CN(C)c1ccc(C(=O)OCC(=O)NC2CCCCC2)cc1 | inconclusive: -50.7%
36 | CC(OC(=O)c1nc(-c2ccccc2)n(-c2ccccc2)n1)C(=O)Nc1cc(Cl)cc(Cl)c1 (centres undefined) | inconclusive: -45%
37 | Cc1cc(NC(=O)c2cc(-c3ccncc3)nc3c(C)cccc23)no1 | inconclusive: -37.9%
38 | COc1ccc(S(=O)(=O)NCc2ccccn2)cc1Cl | inconclusive: -40.2%
39 | CCN(CC)CC(=O)NC12CC3CC(CC(C3)C1)C2 | inactive: -5.78%
40 | CC(C)(C)c1ccc(OCc2ccc(C(=O)N/N=C3\CC4CC=CC34)cc2)cc1 (centres undefined) | inactive: -27.4%
41 | Cn1c(=O)c2c(ncn2CC(=O)Nc2nnc(Cc3ccccc3)s2)n(C)c1=O | inconclusive: -56.2%
42 | O=C(CNC1=NCCC1)c1ccc2c(c1)OCCO2 | inconclusive: -41.2%
43 | COc1ccccc1-c1cc(C(F)(F)F)nc(N2CCOCC2)n1 | inconclusive: -58%
44 | CCN(CC)c1ccc(C(=O)OCC(=O)N2CCN(c3ccccc3)CC2)cc1 | inactive: -20.5%
45 | CCc1nnc(NS(=O)(=O)c2ccc(NC(=S)NC(=O)/C=C/c3ccc(F)cc3)cc2)s1 | inconclusive: -38.9%
46 | Cc1cc(Nc2ccccc2)n(C(=O)c2ccc(N)cc2)n1 | active: -86.2%

Row | Compound | activity change (PNC), negative = inhibition
47 | Cn1cc(S(=O)(=O)CC(=O)Nc2ccc3c(c2)OCCO3)c2ccccc21 | inconclusive: -36.6%
48 | COc1ccc(NC(=O)CN2CCN(S(=O)(=O)c3ccc(F)cc3)CC2)cc1Cl | active: -123%
49 | COc1ccc2nc(NC(=O)c3ccc(-n4nc(C)cc4C)cc3)sc2c1 | inconclusive: -30.9%
50 | N#Cc1c(SCc2ccccc2)nc(N2CCOCC2)c2c1CCCC2 | inconclusive: -76.5%
51 | Cc1cccc(NC(=O)CSc2nnc(-c3ccccc3C)o2)c1 | inactive: -2.65%
52 | COCCOC(=O)C1=C(C)OC(N)=C(C#N)C1c1ccco1 (centres undefined) | active: -100%
53 | N#CC1=C(N)Nc2ncnn2C1c1ccc(F)cc1 (centres undefined) | inactive: -17.4%
54 | O=C(Nc1ccc([N+](=O)[O-])cn1)C1CC2CCC1C2 (centres undefined) | inactive: 36.3%
55 | Nc1ccccc1C(=O)N/N=C1\C2CN3CCN(C2)CC1(c1ccccc1)C3 | inconclusive: -34.5%
56 | CC1CC(C)CN(C(=O)c2ccc3c(c2NCCO)C(=O)c2ccccc2C3=O)C1 (centres undefined) | inconclusive: -77.9%
57 | CCOC(=O)c1c(NC(=O)CN2CCN(C(=O)c3ccco3)CC2)sc2c1CCCC2 | active: -100%
58 | COc1ccc(C)cc1NC(=O)C1CC(=O)N(Cc2ccco2)C1 (centres undefined) | inactive: 24.3%
59 | Cc1cc(/C=C(\C#N)C(=O)NCc2cccs2)c(C)n1-c1ccccc1F | inconclusive: -48.9%
60 | C1=C(CCNc2nnnn2-c2ccccc2)CCCC1 | inconclusive: -30.8%
61 | CCOC(=O)c1ccc(NC(=S)Nc2cccc(C)n2)cc1 | active: -85.4%
62 | CCC(C)C(=O)Nc1nc(C)c(-c2csc(Nc3ccccc3OC)n2)s1 (centres undefined) | inactive: -18.4%
63 | CCn1c(COc2ccc(=O)n(-c3ccccc3)n2)nnc1SCc1ccccc1 | inconclusive: -52.5%
64 | Cn1c(-c2ccc(F)cc2)cnc1SCC(=O)NCc1ccco1 | inconclusive: -62.9%
65 | CCOC(=O)N1CCC(Nc2c(NCCN3CCN(c4ccccc4F)CC3)c(=O)c2=O)CC1 | inconclusive: -53.8%
66 | Cc1csc(NC(=O)c2nc(-c3ccccc3)n(-c3ccccc3)n2)n1 | inactive: 28.2%
67 | CCOC(=O)c1cnn2c(N)c(C#N)nnc12 | active: -117%
68 | Cc1ccc(S(=O)(=O)N2CCN(Cc3ccccc3C(F)(F)F)CC2)cc1 | inconclusive: -41%
69 | CCOc1ccc(N2C(=O)/C(=C\c3ccccc3OC)S(=O)(=O)C2c2cccc([N+](=O)[O-])c2)cc1 (centres undefined) | inactive: -15.5%

Row | Compound | activity change (PNC), negative = inhibition
70 | COCc1c(C(=O)N/N=C/C2CC=CCC2)nnn1-c1nonc1N (centres undefined) | inconclusive: -33.2%
71 | O=C1OC(c2ccccc2)=C/C1=C\N1CCOCC1 | inconclusive: -35.1%
72 | S=C(NC1CCCCC1)N1CCN(C/C=C/c2ccccc2)CC1 | inconclusive: -60.5%
73 | N#CC(C#N)=C1C=CC=CN1/C(=C\c1ccco1)C(=O)c1ccc(Cl)cc1 | inconclusive: -51.5%
74 | COCC(=O)NCCc1nc2ccccc2[nH]1 | inconclusive: -49.6%
75 | Cc1cccc(OCC(=O)NNC(=O)Nc2cccc(Cl)c2)c1C | inactive: 10.2%
76 | CCOc1ccccc1Nc1nc(-c2sc(NC(=O)c3ccccc3)nc2C)cs1 | inactive: 24.8%
77 | CCc1ccc(Nc2nnc(SCC(=O)Nc3cccnc3Cl)s2)cc1 | inactive: 54.1%
78 | CCOC(=O)Cn1c(=N)n(Cc2ccccc2F)c2ccccc21 | inconclusive: -36.5%
79 | CC1=NN(C(N)=S)C(=O)C1N=Nc1ccc(C)cc1C (centres undefined) | inactive: -13.9%
80 | Cc1ccc(-c2cc(C(=O)Nc3cc(C)ccc3C)[nH]n2)c(O)c1 | active: -84.3%
81 | Oc1ccccc1-c1nc(NCc2ccco2)c2ccccc2n1 | inactive: -2.38%
82 | Cc1ccccc1Nc1nnc(SCC(=O)Nc2ccccc2[N+](=O)[O-])s1 | inconclusive: -58.1%
83 | N#Cc1nc(COc2ccc(F)cc2)oc1N1CCCC1 | inconclusive: -31.8%
84 | Cc1ccc(-c2cn3cccnc3n2)cc1NC(=O)c1c(-c2ccccc2Cl)noc1C | inconclusive: -30.5%
85 | CCCCCOC(=O)C1=C(C)N(C)C(=O)NC1c1cc(Br)c(O)c(OC)c1 (centres undefined) | inconclusive: -41.5%
86 | CC(=O)OC1CCC2(C)C(COc3ccc4ccc(=O)oc4c3)C(C)(O)CCC2C1(C)C (centres undefined) | inconclusive: -48.2%
87 | Cc1ccc(Oc2ccc(S(=O)(=O)N3CCOCC3)cc2C(N)=O)c(-n2nc3ccccc3n2)c1 | inconclusive: -68.9%
88 | c1ccc(C(c2ccccc2)N2CCN(Cc3nnnn3C3CCCCC3)CC2)cc1 | inconclusive: -39.9%
89 | COc1ccc(OC)c(NC(=O)c2cc3n(n2)C(C(F)(F)F)CC(c2ccc4c(c2)OCO4)N3)c1 (centres undefined) | inactive: -23.8%

Copied from above, compounds 39 to 61
Row | Compound | activity change (PNC), negative = inhibition
39 | CCN(CC)CC(=O)NC12CC3CC(CC(C3)C1)C2 | inactive: -5.78%
40 | CC(C)(C)c1ccc(OCc2ccc(C(=O)N/N=C3\CC4CC=CC34)cc2)cc1 (centres undefined) | inactive: -27.4%
41 | Cn1c(=O)c2c(ncn2CC(=O)Nc2nnc(Cc3ccccc3)s2)n(C)c1=O | inconclusive: -56.2%
42 | O=C(CNC1=NCCC1)c1ccc2c(c1)OCCO2 | inconclusive: -41.2%
43 | COc1ccccc1-c1cc(C(F)(F)F)nc(N2CCOCC2)n1 | inconclusive: -58%
44 | CCN(CC)c1ccc(C(=O)OCC(=O)N2CCN(c3ccccc3)CC2)cc1 | inactive: -20.5%
45 | CCc1nnc(NS(=O)(=O)c2ccc(NC(=S)NC(=O)/C=C/c3ccc(F)cc3)cc2)s1 | inconclusive: -38.9%
46 | Cc1cc(Nc2ccccc2)n(C(=O)c2ccc(N)cc2)n1 | active: -86.2%
47 | Cn1cc(S(=O)(=O)CC(=O)Nc2ccc3c(c2)OCCO3)c2ccccc21 | inconclusive: -36.6%
48 | COc1ccc(NC(=O)CN2CCN(S(=O)(=O)c3ccc(F)cc3)CC2)cc1Cl | active: -123%
49 | COc1ccc2nc(NC(=O)c3ccc(-n4nc(C)cc4C)cc3)sc2c1 | inconclusive: -30.9%
50 | N#Cc1c(SCc2ccccc2)nc(N2CCOCC2)c2c1CCCC2 | inconclusive: -76.5%
51 | Cc1cccc(NC(=O)CSc2nnc(-c3ccccc3C)o2)c1 | inactive: -2.65%
52 | COCCOC(=O)C1=C(C)OC(N)=C(C#N)C1c1ccco1 (centres undefined) | active: -100%
53 | N#CC1=C(N)Nc2ncnn2C1c1ccc(F)cc1 (centres undefined) | inactive: -17.4%
54 | O=C(Nc1ccc([N+](=O)[O-])cn1)C1CC2CCC1C2 (centres undefined) | inactive: 36.3%
55 | Nc1ccccc1C(=O)N/N=C1\C2CN3CCN(C2)CC1(c1ccccc1)C3 | inconclusive: -34.5%
56 | CC1CC(C)CN(C(=O)c2ccc3c(c2NCCO)C(=O)c2ccccc2C3=O)C1 (centres undefined) | inconclusive: -77.9%
57 | CCOC(=O)c1c(NC(=O)CN2CCN(C(=O)c3ccco3)CC2)sc2c1CCCC2 | active: -100%
58 | COc1ccc(C)cc1NC(=O)C1CC(=O)N(Cc2ccco2)C1 (centres undefined) | inactive: 24.3%
59 | Cc1cc(/C=C(\C#N)C(=O)NCc2cccs2)c(C)n1-c1ccccc1F | inconclusive: -48.9%
60 | C1=C(CCNc2nnnn2-c2ccccc2)CCCC1 | inconclusive: -30.8%
61 | CCOC(=O)c1ccc(NC(=S)Nc2cccc(C)n2)cc1 | active: -85.4%
